{
  "source": "patent US20020045574A1",
  "about": "“Glycopeptide antibacterial compounds and methods of using same” (priority 2000, published 2002)",
  "system": "E. faecalis CL 4877 (VanB)",
  "test": "Strain antibiotic susceptibility phenotype (MIC interpretive standards)",
  "format": "cell-based",
  "excerpt": "The test panel currently includes eight enterococci and 13 staphylococci, which are selected based upon their antibiotic susceptibility profiles. The methicillin-sensitive Staphylococcus aureus (MSSA) strain MB2985 (Smith isolate) is used to assesses the potential for serum protein binding of the compounds. The paired Gram-negative strains ASP #49 (envA−) and ASP #50 (envA+) (M. Salvatore/N. Lee) are included to judge membrane effects. Table 1 presents a detailed description of the strains included in the panel, including some of the sources of the strains of bacteria.",
  "note": "At least one structure is not confirmed: it was looked up by name or label, or the drawing left a doubt.",
  "data": [
    {"smiles": "C[C@@H](O)[C@H]1C(=O)N2C(C(=O)O)=C(SCCN=CN)C[C@H]12", "note": "[Ipm, imipenem]", "values": [
      {"measurement": "Phenotype Ipm", "result": "S/I"}
    ]}
  ]
}
